Some entries share one result that the patent states for a list of compounds.
Each molecule was assayed on Rhipicephalus sanguineus (assay: Screening method to test contact activity against Rhipicephalus sanguineus (brown dog tick), filter paper test). Settings: test concentration of 1000 ppm; larvae (L1) on treated filter paper; 25° C., 90% RH; assessed 24 hours after application in comparison with the untreated control.
Type: in vivo

Row | SMILES | contact control of Rhipicephalus sanguineus
1 | N#Cc1ccc(OCc2ccccc2)cc1Cl [Compound 01-81] | at least 70%
2 | CC(=O)c1ccc(Oc2ccccc2)cc1 [Compound 04-01] | at least 70%
3 | CC(=O)c1ccc(Oc2ccc(Cl)cc2)cc1 [Compound 04-13] | at least 70%

From patent US20090143482A1, “Pesticidal Substituted Phenylethers” (priority 2005, published 2009)
